PubChem BioAssay AID1259254 – NCATS | 2017

Aim: 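Gene knock-downs that lead to re-replication, shown by excess G2 DNA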 (primary screen)
Cell system: human HCT116 colorectal cancer cells
Reagent: single siRNA against human genes
Timing: 3 days
Read-out: 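Nuclei stained with Hoechst and imaged; cell-cycle phase assigned by DNA content; G2 share scaled per plate, non-targeting siRNA 0%, GMNN siRNA 100%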
Direction: G2 robust z-score: higher = more G2 cells, more excess DNA replication
Active means: 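An siRNA counts as active if its G2 robust z-score lies at least 5 MADs above the screen median; here such calls match roughly 38% of GMNN control or more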
The whole screen tested about 59,000 reagents; below is an unselected part. About 1,550 of them (2.6%) count as active. 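G2 share is only a proxy for re-replication; each gene was hit by three separate siRNAs, and active genes were retested.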 Unmarked entries are inactive. Reagents against one gene are numbered here. Not all columns of the deposit are shown. Reagent sequences are not shown. Not stated in the record: the amount of reagent.

| gene knocked down | reagent no. | G2 robust z-score |
| --- | --- | --- |
| LINC00927 | 1 | -0.0199 |
| LINC00927 | 2 | 6.87 (active) |
| LINC00927 | 3 | 2.15 |
| RPL36AL | 1 | 0.0606 |
| RPL36AL | 2 | -0.152 |
| RPL36AL | 3 | 0.956 |
| TNRC18P1 | 1 | -0.104 |
| TNRC18P1 | 2 | 2.41 |
| TNRC18P1 | 3 | 0.6 |
| SCPEP1 | 1 | -0.971 |
| SCPEP1 | 2 | -0.197 |
| SCPEP1 | 3 | 1.09 |
| P4HB | 1 | -0.256 |
| P4HB | 2 | -0.515 |
| P4HB | 3 | -0.119 |
| LRRC66 | 1 | 3.95 |
| LRRC66 | 2 | -0.92 |
| LRRC66 | 3 | 0.492 |
| PRSS35 | 1 | -0.703 |
| PRSS35 | 2 | 2.28 |
| PRSS35 | 3 | -1.06 |
| ABCG1 | 1 | 1.11 |
| ABCG1 | 2 | -1.19 |
| ABCG1 | 3 | -0.15 |
| B3GALT5-AS1 | 1 | -1.12 |
| B3GALT5-AS1 | 2 | 0.369 |
| B3GALT5-AS1 | 3 | -0.753 |
| MYG1 | 1 | 0.121 |
| MYG1 | 2 | 0.8 |
| MYG1 | 3 | 3.54 |
